Test results reported in article PMC9788671.
These are yes or no findings as the source states them, for the method shown. In cells and extracts the contact can be indirect. These calls come from enrichment with a bait or labelling near it, and not all partners need be listed.

Protein sequences, listed by entry. Tags and fused reporters are not part of them. Residues count along the entry.
UniProt Q9NZV8: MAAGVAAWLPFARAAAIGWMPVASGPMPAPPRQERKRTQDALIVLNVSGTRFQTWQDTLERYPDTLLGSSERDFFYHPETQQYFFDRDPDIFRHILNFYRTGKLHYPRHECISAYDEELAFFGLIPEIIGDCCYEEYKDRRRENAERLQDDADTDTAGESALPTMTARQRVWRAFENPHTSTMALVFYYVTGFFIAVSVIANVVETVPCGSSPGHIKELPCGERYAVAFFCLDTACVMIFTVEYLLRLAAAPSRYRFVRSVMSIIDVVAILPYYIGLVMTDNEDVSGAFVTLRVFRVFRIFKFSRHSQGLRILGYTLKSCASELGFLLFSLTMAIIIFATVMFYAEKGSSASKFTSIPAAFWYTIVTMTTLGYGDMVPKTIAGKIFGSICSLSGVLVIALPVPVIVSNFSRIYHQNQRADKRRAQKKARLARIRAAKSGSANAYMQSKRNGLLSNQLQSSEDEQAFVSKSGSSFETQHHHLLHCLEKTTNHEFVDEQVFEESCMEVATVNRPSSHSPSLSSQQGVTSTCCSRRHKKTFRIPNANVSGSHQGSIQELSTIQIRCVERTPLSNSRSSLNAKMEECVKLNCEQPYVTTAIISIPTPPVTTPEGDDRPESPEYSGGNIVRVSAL
UniProt P04797: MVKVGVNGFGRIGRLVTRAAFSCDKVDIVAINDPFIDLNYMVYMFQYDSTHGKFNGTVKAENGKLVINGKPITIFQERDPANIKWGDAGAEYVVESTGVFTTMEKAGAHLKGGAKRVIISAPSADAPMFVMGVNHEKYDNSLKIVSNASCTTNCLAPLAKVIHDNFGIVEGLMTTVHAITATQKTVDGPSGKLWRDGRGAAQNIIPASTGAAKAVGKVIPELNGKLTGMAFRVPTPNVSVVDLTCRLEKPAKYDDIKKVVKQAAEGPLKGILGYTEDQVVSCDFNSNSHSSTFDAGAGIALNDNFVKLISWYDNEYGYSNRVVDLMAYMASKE
UniProt P02625: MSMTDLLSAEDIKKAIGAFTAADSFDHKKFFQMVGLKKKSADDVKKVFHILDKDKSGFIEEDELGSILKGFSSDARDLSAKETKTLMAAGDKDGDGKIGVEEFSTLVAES
UniProt P47709: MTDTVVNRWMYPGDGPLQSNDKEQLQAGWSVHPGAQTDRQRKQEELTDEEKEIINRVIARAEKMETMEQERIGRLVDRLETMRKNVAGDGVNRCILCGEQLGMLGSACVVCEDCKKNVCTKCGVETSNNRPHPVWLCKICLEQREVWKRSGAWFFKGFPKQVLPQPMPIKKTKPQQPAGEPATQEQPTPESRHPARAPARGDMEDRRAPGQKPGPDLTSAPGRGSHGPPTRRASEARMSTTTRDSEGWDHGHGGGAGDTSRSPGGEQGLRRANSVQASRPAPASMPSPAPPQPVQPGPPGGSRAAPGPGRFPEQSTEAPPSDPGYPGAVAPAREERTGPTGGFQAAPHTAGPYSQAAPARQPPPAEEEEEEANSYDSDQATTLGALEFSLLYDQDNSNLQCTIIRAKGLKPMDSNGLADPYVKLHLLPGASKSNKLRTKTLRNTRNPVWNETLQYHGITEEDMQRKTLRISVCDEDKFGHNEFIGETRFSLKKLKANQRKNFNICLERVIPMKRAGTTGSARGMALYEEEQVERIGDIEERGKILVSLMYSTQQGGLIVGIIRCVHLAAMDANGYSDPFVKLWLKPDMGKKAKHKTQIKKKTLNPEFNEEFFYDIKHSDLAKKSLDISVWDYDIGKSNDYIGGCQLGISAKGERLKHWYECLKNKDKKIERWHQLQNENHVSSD
UniProt Q6P9T8: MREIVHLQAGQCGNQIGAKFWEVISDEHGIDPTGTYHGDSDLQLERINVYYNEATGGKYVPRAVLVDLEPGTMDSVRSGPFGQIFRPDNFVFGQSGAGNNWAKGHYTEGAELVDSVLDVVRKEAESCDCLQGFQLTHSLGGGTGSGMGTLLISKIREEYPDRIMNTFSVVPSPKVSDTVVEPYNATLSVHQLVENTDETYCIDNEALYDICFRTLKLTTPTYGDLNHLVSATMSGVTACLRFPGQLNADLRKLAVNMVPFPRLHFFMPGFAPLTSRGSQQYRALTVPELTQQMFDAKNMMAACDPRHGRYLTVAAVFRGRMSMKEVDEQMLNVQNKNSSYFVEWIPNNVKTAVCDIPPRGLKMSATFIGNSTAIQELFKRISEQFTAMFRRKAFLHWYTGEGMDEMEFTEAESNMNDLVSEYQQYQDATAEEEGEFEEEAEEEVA
UniProt F1LPQ2: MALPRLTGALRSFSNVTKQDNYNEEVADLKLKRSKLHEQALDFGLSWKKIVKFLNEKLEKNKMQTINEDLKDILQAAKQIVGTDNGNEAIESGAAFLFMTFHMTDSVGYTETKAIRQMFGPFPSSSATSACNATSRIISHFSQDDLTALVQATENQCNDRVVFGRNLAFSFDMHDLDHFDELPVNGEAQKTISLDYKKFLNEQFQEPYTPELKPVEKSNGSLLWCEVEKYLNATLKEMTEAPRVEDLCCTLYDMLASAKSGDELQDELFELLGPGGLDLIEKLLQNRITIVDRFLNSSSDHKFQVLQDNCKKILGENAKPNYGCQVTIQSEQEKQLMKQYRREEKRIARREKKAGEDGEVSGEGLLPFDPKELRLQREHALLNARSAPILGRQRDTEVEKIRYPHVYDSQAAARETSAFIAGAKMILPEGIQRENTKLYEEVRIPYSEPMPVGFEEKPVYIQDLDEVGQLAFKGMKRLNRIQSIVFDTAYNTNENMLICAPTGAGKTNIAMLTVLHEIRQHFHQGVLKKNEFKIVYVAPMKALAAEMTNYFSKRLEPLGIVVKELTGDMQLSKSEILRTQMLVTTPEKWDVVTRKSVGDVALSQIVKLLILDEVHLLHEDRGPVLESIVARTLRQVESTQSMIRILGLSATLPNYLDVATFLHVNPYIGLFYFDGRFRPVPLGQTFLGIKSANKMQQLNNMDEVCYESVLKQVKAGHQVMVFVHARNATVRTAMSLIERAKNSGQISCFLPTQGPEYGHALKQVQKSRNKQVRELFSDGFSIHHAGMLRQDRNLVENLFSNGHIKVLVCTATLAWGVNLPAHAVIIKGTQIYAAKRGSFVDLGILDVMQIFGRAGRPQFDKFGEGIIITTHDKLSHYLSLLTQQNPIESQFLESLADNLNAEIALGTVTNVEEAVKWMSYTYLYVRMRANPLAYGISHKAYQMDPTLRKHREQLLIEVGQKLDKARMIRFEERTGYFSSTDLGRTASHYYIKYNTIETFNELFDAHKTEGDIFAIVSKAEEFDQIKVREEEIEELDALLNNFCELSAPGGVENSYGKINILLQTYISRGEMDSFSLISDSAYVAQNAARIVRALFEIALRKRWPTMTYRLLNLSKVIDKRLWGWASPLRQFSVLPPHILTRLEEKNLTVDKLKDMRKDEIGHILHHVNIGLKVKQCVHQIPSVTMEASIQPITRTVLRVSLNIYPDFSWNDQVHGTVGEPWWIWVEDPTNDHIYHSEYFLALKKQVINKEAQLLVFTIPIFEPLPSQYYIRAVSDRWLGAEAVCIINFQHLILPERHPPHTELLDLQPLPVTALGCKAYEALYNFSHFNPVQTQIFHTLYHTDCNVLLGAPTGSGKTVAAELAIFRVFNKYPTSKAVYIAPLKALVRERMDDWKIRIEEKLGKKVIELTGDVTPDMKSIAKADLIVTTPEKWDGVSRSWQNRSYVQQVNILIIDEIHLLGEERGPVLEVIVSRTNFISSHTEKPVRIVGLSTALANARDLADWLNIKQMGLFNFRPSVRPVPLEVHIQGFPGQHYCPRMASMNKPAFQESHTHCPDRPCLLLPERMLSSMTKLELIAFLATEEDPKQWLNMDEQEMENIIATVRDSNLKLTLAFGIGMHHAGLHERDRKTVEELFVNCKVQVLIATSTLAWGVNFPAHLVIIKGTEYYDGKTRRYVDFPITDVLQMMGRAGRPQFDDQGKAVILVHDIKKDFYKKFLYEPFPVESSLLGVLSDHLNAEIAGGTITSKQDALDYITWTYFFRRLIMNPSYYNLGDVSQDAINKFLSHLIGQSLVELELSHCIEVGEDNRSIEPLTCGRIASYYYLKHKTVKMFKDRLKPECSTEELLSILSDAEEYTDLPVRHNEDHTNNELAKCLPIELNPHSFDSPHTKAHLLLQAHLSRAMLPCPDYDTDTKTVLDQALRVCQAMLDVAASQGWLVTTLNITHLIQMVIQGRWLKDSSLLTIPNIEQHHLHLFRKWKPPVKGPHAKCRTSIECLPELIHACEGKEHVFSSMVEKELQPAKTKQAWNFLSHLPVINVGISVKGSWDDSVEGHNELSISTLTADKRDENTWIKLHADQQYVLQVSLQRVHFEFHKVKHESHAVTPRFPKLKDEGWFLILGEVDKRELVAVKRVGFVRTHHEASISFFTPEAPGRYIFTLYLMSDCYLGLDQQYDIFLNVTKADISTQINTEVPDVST
UniProt D3ZFD0: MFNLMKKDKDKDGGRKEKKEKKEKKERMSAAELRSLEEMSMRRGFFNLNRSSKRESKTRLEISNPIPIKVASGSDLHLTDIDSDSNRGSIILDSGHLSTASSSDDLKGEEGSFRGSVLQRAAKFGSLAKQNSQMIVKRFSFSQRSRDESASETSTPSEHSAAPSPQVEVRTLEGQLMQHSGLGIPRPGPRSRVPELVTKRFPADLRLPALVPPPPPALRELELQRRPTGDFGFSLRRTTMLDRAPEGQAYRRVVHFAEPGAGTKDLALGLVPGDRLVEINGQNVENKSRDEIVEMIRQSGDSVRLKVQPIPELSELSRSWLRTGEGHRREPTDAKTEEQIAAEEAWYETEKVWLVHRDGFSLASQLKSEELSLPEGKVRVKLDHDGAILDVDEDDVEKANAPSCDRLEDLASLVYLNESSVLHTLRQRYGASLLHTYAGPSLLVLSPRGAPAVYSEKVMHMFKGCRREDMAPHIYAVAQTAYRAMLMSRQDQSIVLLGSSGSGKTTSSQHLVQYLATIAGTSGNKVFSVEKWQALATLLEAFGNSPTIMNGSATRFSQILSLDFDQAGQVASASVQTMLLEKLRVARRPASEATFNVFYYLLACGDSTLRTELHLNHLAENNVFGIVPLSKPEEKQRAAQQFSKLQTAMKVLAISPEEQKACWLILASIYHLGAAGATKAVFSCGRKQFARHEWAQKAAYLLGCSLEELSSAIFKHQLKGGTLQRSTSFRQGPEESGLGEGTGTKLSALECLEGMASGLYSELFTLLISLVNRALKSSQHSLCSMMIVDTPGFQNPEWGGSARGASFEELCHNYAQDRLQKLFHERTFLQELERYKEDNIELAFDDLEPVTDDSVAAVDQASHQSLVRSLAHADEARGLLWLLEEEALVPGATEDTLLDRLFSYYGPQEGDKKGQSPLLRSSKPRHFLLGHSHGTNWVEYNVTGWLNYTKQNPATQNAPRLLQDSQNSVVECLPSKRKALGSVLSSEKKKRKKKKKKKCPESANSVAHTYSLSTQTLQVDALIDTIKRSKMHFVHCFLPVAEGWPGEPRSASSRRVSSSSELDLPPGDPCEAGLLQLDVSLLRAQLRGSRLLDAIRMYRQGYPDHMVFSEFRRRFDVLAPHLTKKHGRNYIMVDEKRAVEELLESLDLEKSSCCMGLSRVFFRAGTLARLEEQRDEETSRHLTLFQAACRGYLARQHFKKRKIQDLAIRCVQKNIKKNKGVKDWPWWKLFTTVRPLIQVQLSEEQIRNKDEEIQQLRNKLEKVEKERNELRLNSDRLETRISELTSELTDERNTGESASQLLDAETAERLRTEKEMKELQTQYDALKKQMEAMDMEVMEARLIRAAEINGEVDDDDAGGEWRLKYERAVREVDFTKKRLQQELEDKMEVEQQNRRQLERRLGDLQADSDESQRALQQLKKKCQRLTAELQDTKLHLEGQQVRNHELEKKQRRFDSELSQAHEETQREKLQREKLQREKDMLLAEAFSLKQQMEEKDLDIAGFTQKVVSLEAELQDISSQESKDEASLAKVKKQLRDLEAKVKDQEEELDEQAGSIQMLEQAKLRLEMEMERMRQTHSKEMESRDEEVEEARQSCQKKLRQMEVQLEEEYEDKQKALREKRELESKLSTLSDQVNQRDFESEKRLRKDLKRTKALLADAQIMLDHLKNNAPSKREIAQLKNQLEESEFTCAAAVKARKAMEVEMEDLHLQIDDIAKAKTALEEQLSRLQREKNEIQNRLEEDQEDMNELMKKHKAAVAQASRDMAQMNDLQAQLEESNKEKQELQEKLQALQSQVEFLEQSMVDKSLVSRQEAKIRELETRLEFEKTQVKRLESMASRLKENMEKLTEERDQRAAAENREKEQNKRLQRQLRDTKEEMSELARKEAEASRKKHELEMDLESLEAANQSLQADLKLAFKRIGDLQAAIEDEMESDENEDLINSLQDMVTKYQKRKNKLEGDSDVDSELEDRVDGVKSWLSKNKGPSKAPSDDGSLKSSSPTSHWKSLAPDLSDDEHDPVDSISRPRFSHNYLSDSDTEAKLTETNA
UniProt Q5XIF3, residues 43-175: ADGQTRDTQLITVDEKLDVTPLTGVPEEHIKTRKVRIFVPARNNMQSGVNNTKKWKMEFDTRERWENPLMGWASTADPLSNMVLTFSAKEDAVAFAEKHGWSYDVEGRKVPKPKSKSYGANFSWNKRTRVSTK

Each substance was assayed against TAP-Kv4.2 (human) (UniProt Q9NZV8) (assay: affinity purification with mass spectrometry; TAP-Kv4.2 expressed by lentivirus in rat hippocampal neurons, harvested at DIV14; weak lysis buffer of the kit (0.1% NP-40); streptavidin resin, then calmodulin resin; gel cut into high and low molecular weight fragments; no MS of the control sample).

binding, binds:
Acsl4 (from UniProt O35547 1-711)
Alb (from UniProt P02770 25-608)
Alg2 (from UniProt G3V6U3)
Amfr (from UniProt A0A0G2K437 1-770)
Atp1a3 (from UniProt P06687 1-1013)
Atp2a1 (from UniProt Q64578 1-994)
Atp2a2 (from UniProt P11507 1-1043)
Atp5b (from UniProt P10719 47-529)
Atp6v0a1 (from UniProt P25286 1-838)
Atp12a (from UniProt P54708 1-1036)
Bag6 (from UniProt Q6MG49 1-1146)
Bsn (from UniProt O88778 1-3938)
C3 (from UniProt P01026 25-1663)
Ca2 (from UniProt P27139 1-260)
Capza2 (from UniProt Q3T1K5 1-286)
Cfl1 (from UniProt P45592 1-166)
Ckap4 (from UniProt D3ZH41 1-575)
Ckm (from UniProt P00564 1-381)
Clu (from UniProt P05371 22-447)
Crmp1 (from UniProt Q62950 1-572)
Ctnnb1 (from UniProt Q9WU82 1-781)
DPP10 (from UniProt Q6Q629 1-796)
Ddb1 (from UniProt Q9ESW0 1-1140)
Dnaja1 (from UniProt P63036 1-397)
Dnaja2 (from UniProt O35824 1-412)
Dpysl3 (from UniProt Q62952 1-570)
Dync1li1 (from UniProt Q9QXU8 1-523)
Eef1a1 (from UniProt P62630 1-462)
Eif2c2 (from UniProt Q9QZ81 1-860)
Elavl2 (from UniProt Q8CH84 1-359)
Eno1 (from UniProt P04764 1-434)
Eno3 (from UniProt P15429 1-434)
Fn1 (from UniProt P04937 25-2477)
Gapdh (from UniProt P04797 1-333)
Gfap (from UniProt P47819 1-430)
Gsn (from UniProt Q68FP1 26-780)
Hadha (from UniProt Q64428 37-763)
Hbb (from UniProt P02091 1-147)
Hnrnpa1 (from UniProt P04256 1-320)
Hnrnpa2b1 (from UniProt A7VJC2 1-353)
Hnrnpul2 (from UniProt D4ABT8 1-736)
Hsp90ab1 (from UniProt P34058 1-724)
Hspa1a (from UniProt P0DMW0 1-641)
Hspa2 (from UniProt P14659 1-633)
Hspa9 (from UniProt P48721 47-679)
Hspd1 (from UniProt P63039 27-573)
Idh3B (from UniProt Q68FX0 35-385)
Ipo7 (from UniProt D4AE96 1-1038)
Kidins220 (from UniProt Q9EQG6 1-1762)
Kif2a (from UniProt Q9WV63 1-705)
Kif5a (from UniProt Q6QLM7 1-1027)
Kpnb1 (from UniProt P52296 1-875)
Madd (from UniProt O08873 1-1602)
Mark1 (from UniProt O08678 1-793)
Mark2 (from UniProt O08679 1-722)
Ncl (from UniProt P13383 1-713)
Ndufs1 (from UniProt Q66HF1 24-727)
Nsf (from UniProt Q9QUL6 1-744)
Numbl (from UniProt A1L1I3 1-614)
Pkm (from UniProt P11980 1-531)
Ppp2r1a (from UniProt Q5XI34 1-589)
Prkca (from UniProt P05696 1-672)
Psmc1 (from UniProt P62193 1-440)
Psmc3 (from UniProt Q63569 1-439)
Psmc4 (from UniProt Q63570 1-418)
Psmc5 (from UniProt P62198 1-406)
Psmd2 (from UniProt Q4FZT9 1-908)
Psmd3 (from UniProt A6HIT6 1-530)
Pvalb (from UniProt P02625 1-110)
Rhot1 (from UniProt A1L1L6 1-631)
Rph3a (from UniProt P47709 1-684)
Slc27a1 (from UniProt P97849 1-646)
Slc27a4 (from UniProt G3V7V3 1-643)
Stxbp1 (from UniProt P61765 1-594)
Sv2a (from UniProt Q02563 1-742)
Syn1 (from UniProt P09951 1-704)
Syn2 (from UniProt Q63537 1-586)
Syn3 (from UniProt O70441 1-579)
Syt1 (from UniProt P21707 1-421)
Tcp1 (from UniProt P28480 1-556)
Tf (from UniProt P12346 20-698)
Tpi1 (from UniProt P48500 1-249)
Tubb4b (from UniProt Q6P9T8 1-445)
Tubb5 (from UniProt P69897 1-444)
Tubb6 (from UniProt A6IXU7 1-447)
Usp7 (from UniProt Q4VSI4 1-1103)
Vim (from UniProt P31000 1-466)

Each substance was assayed against TAP-Kv4.2 (human) (UniProt Q9NZV8) (assay: affinity purification with mass spectrometry; TAP-Kv4.2 expressed by lentivirus in rat hippocampal neurons, harvested at DIV14; strong lysis buffer (1% Triton X-100, 0.5% deoxycholate in PBS, pH 7.4); streptavidin resin, then calmodulin resin; gel cut into high and low molecular weight fragments; no MS of the control sample).

binding, binds:
Apc (from UniProt P70478 1-2842)
Arf6 (from UniProt P62332 1-175)
Ascc3 (from UniProt F1LPQ2 1-2197)
Cacna1b (from UniProt Q02294 1-2336)
Calml3 (from UniProt Q5U206 1-149)
Caskin1 (from UniProt Q8VHK2 1-1430)
Crebbp (from UniProt Q6JHU9 1-2442)
Eif3a (from UniProt Q1JU68 1-1354)
Hdac4 (from UniProt Q99P99 1-1077)
Iqgap1 (from UniProt A0A8I6AJK7 1-1776)
Itpr1 (from UniProt P29994 1-2750)
Kif1b (from UniProt O88658 1-1816)
Kras (from UniProt P08644 1-189)
Map1a (from UniProt P34926 1-2774)
Map4 (from UniProt Q5M7W5 1-1057)
Map7d1 (from UniProt A0A8I5ZM56 1-849)
Mast1 (from UniProt Q810W7 1-1570)
Myh10 (from UniProt Q9JLT0 1-1976)
Mylk2 (from UniProt P20689 1-610)
Myo9a (from UniProt Q9Z1N3 1-2626)
Myo18a (from UniProt D3ZFD0 1-2044)
Ndufa9 (from UniProt Q5BK63 36-377)
Ndufs4 (from UniProt Q5XIF3 43-175)
Nf1 (from UniProt P97526 1-2820)
Ppfia4 (from UniProt Q91Z80 1-1043)
Rab18 (from UniProt Q5EB77 1-206)
Rims1 (from UniProt Q9JIR4 1-1615)
Rims2 (from UniProt Q9JIS1 1-1555)
Safb (from UniProt O88453 1-931)
Scn1a (from UniProt P04774 1-2009)
Scn2a (from UniProt P04775 1-2005)
Sipa1l1 (from UniProt O35412 1-1822)
Smarca4 (from UniProt Q8K1P7 1-1613)
Sptbn4 (from UniProt A0A0G2K677 1-2609)
Taf10 (from UniProt A6I7M8 1-218)
Tanc1 (from UniProt Q6F6B3 1-1849)
